According to patent US8703951B2, “Synthesis of 4H-benzo[D]pyrrolo[1,2-A]thiazoles and indolizino[6,7-b]indole derivatives and their use as antitumor therapeutic agents” (Academia Sinica, priority 2011, dated 2014):
Some of these results come from one statement about several compounds together. At least one compound was matched to its structure with a doubt left.

System: MX-1 human mammary xenograft
Assay: Therapeutic efficacy in nude mice bearing MX-1 xenograft
Type: in vivo
Details: Q2D×4, iv. inj., FIG. 4A
Protocol: Athymic nude mice bearing the nu/nu gene were obtained from NCI, Frederick, Md. and used for all human tumor xenografts. Male nude mice, 6 weeks or older, weighing 20-24 g or more were used. Compounds were administered via the tail vein for i.v. injection or infusion as described previously.^26 A typical formulation for chemotherapeutic studies for each drug was dissolved in DSMO to make a 25 mg/ml fresh solution, 0.4 ml of this solution was mixed with 0.3 ml of Tween 80, plus 1.3 ml to make 2 ml of 5 mg/ml solution. Bolus injection volume was 0.1-0.2 ml per mouse. Tumor volume was assessed by measuring length×width×height (or width) by using a caliper. For tumor-bearing nude mice during the course of the experiment, the body weight refers to total weight minus the weight of the tumor. All animal studies were conducted in accordance with the guidelines for the National Institute of Health Guide for the Care and Use of Animals and the protocol approved by the Institutional Animal Care and Use Committee.

Row | Compound | tumor suppression (10 mg/kg) | tumor suppression (30 mg/kg)
1 | CCNC(=O)OCc1c(COC(=O)NCC)c2sc3ccccc3n2c1-c1ccc(F)cc1 [Compound 19b, (1-(4-Fluorophenyl)benzo[d]pyrrolo[2,1-b]thiazole-2,3-diyl)bis(methylene)bis(ethylcarbamate)] | more than 99% | –
2 | CCNC(=O)OCc1c(COC(=O)NCC)c2sc3ccccc3n2c1-c1ccc(Cl)cc1 [Compound 19c, (1-(4-Chlorophenyl)benzo[d]pyrrolo[2,1-b]thiazole-2,3-diyl)bis(methylene)bis(ethylcarbamate)] | – | more than 99%
